According to the supplement of paper PMC8612539:
≈ marks a conversion by molar mass, not a printed value. The source gives many values for each of these; only a part stands here.

Test system: Escherichia coli
Test: minimum inhibitory concentration (MIC)
Method: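 Broth microdilution MIC (Sensititre BOPO7F bovine plate, CLSI methods) of 19 antimicrobials against field isolates of P. multocida, M. haemolytica, H. somni (deep nasopharyngeal swabs) and E. coli, Enterococcus spp. (rectal swabs) from weaned dairy heifers. Incubation 16-24 h at 35 C. MIC is the lowest concentration preventing visible growth. Values with <= or > lie at the tested range limits. Trimethoprim-sulfamethoxazole is given as the trimethoprim component of a 1:19 mixture.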

CO/N=C(\C(=O)N[C@@H]1C(=O)N2C(C(=O)O)=C(CSC(=O)c3ccco3)CS[C@H]12)c1csc(N)n1 [Ceftiofur]
Details | minimum inhibitory concentration [µg/mL]
isolate (source animal id): 1 | 0.5 (≈ 0.955 µM)
isolate (source animal id): 2 | 0.5 (≈ 0.955 µM)
isolate (source animal id): 3 | 0.5 (≈ 0.955 µM)
isolate (source animal id): 4 | ≤ 0.25
isolate (source animal id): 5 | ≤ 0.25
isolate (source animal id): 6 | 0.5 (≈ 0.955 µM)
isolate (source animal id): 7 | 0.5 (≈ 0.955 µM)
isolate (source animal id): 17 | 0.5 (≈ 0.955 µM)
isolate (source animal id): 18 | 0.5 (≈ 0.955 µM)
isolate (source animal id): 19 | ≤ 0.25
isolate (source animal id): 20 | 0.5 (≈ 0.955 µM)
isolate (source animal id): 21 | 0.5 (≈ 0.955 µM)
isolate (source animal id): 22 | 0.5 (≈ 0.955 µM)
isolate (source animal id): 23 | 0.5 (≈ 0.955 µM)
isolate (source animal id): 24 | 0.5 (≈ 0.955 µM)
isolate (source animal id): 25 | 0.5 (≈ 0.955 µM)
isolate (source animal id): 26 | 0.5 (≈ 0.955 µM)
isolate (source animal id): 27 | 8 (≈ 15.3 µM)
isolate (source animal id): 28 | 0.5 (≈ 0.955 µM)
isolate (source animal id): 29 | 0.5 (≈ 0.955 µM)
isolate (source animal id): 30 | 0.5 (≈ 0.955 µM)
isolate (source animal id): 31 | 0.5 (≈ 0.955 µM)
isolate (source animal id): 32 | > 8
isolate (source animal id): 33 | 8 (≈ 15.3 µM)
isolate (source animal id): 34 | ≤ 0.25
isolate (source animal id): 35 | 8 (≈ 15.3 µM)
isolate (source animal id): 36 | 0.5 (≈ 0.955 µM)
isolate (source animal id): 37 | > 8
isolate (source animal id): 38 | 0.5 (≈ 0.955 µM)
isolate (source animal id): 39 | > 8
isolate (source animal id): 40 | ≤ 0.25
isolate (source animal id): 41 | > 8
isolate (source animal id): 42 | ≤ 0.25
isolate (source animal id): 43 | 8 (≈ 15.3 µM)
isolate (source animal id): 44 | ≤ 0.25
isolate (source animal id): 45 | ≤ 0.25
isolate (source animal id): 46 | ≤ 0.25
isolate (source animal id): 47 | 0.5 (≈ 0.955 µM)
isolate (source animal id): 48 | ≤ 0.25
isolate (source animal id): 49 | 0.5 (≈ 0.955 µM)
isolate (source animal id): 50 | 0.5 (≈ 0.955 µM)
isolate (source animal id): 51 | 0.5 (≈ 0.955 µM)
isolate (source animal id): 52 | 0.5 (≈ 0.955 µM)
isolate (source animal id): 53 | 0.5 (≈ 0.955 µM)
isolate (source animal id): 54 | ≤ 0.25
isolate (source animal id): 55 | 0.5 (≈ 0.955 µM)
isolate (source animal id): 56 | 0.5 (≈ 0.955 µM)
isolate (source animal id): 57 | > 8
isolate (source animal id): 58 | ≤ 0.25
isolate (source animal id): 59 | 0.5 (≈ 0.955 µM)
isolate (source animal id): 60 | 0.5 (≈ 0.955 µM)
isolate (source animal id): 61 | ≤ 0.25
isolate (source animal id): 62 | 0.5 (≈ 0.955 µM)
isolate (source animal id): 63 | 0.5 (≈ 0.955 µM)
isolate (source animal id): 64 | 0.5 (≈ 0.955 µM)
isolate (source animal id): 65 | ≤ 0.25
isolate (source animal id): 66 | 0.5 (≈ 0.955 µM)
isolate (source animal id): 67 | ≤ 0.25
isolate (source animal id): 68 | 0.5 (≈ 0.955 µM)
isolate (source animal id): 69 | 0.5 (≈ 0.955 µM)
isolate (source animal id): 70 | 0.5 (≈ 0.955 µM)
isolate (source animal id): 71 | 0.5 (≈ 0.955 µM)
isolate (source animal id): 72 | 0.5 (≈ 0.955 µM)
isolate (source animal id): 73 | 0.5 (≈ 0.955 µM)
isolate (source animal id): 74 | 0.5 (≈ 0.955 µM)
isolate (source animal id): 75 | 0.5 (≈ 0.955 µM)
isolate (source animal id): 76 | 0.5 (≈ 0.955 µM)
isolate (source animal id): 77 | 0.5 (≈ 0.955 µM)
isolate (source animal id): 78 | 0.5 (≈ 0.955 µM)
isolate (source animal id): 79 | 0.5 (≈ 0.955 µM)
isolate (source animal id): 80 | 0.5 (≈ 0.955 µM)
isolate (source animal id): 81 | 0.5 (≈ 0.955 µM)
isolate (source animal id): 82 | 0.5 (≈ 0.955 µM)
isolate (source animal id): 83 | ≤ 0.25
isolate (source animal id): 84 | ≤ 0.25
isolate (source animal id): 85 | 0.5 (≈ 0.955 µM)
isolate (source animal id): 86 | 0.5 (≈ 0.955 µM)
isolate (source animal id): 87 | ≤ 0.25
isolate (source animal id): 88 | ≤ 0.25
isolate (source animal id): 89 | ≤ 0.25
isolate (source animal id): 90 | 0.5 (≈ 0.955 µM)
isolate (source animal id): 91 | 0.5 (≈ 0.955 µM)
isolate (source animal id): 92 | ≤ 0.25
isolate (source animal id): 93 | ≤ 0.25
isolate (source animal id): 94 | 0.5 (≈ 0.955 µM)
isolate (source animal id): 95 | ≤ 0.25
isolate (source animal id): 96 | ≤ 0.25
isolate (source animal id): 97 | 0.5 (≈ 0.955 µM)
isolate (source animal id): 189 | ≤ 0.25
isolate (source animal id): 190 | 8 (≈ 15.3 µM)
isolate (source animal id): 191 | ≤ 0.25
isolate (source animal id): 192 | 0.5 (≈ 0.955 µM)
isolate (source animal id): 193 | 8 (≈ 15.3 µM)
isolate (source animal id): 194 | 0.5 (≈ 0.955 µM)
isolate (source animal id): 195 | ≤ 0.25
isolate (source animal id): 196 | 0.5 (≈ 0.955 µM)
isolate (source animal id): 197 | ≤ 0.25
isolate (source animal id): 198 | > 8
isolate (source animal id): 199 | 0.5 (≈ 0.955 µM)
isolate (source animal id): 200 | 0.5 (≈ 0.955 µM)
isolate (source animal id): 201 | ≤ 0.25
isolate (source animal id): 202 | ≤ 0.25
isolate (source animal id): 203 | 0.5 (≈ 0.955 µM)
isolate (source animal id): 204 | ≤ 0.25
isolate (source animal id): 205 | ≤ 0.25
isolate (source animal id): 206 | 0.5 (≈ 0.955 µM)
isolate (source animal id): 207 | > 8
isolate (source animal id): 208 | ≤ 0.25
isolate (source animal id): 209 | ≤ 0.25
isolate (source animal id): 210 | ≤ 0.25
isolate (source animal id): 211 | 0.5 (≈ 0.955 µM)
isolate (source animal id): 212 | > 8
isolate (source animal id): 213 | ≤ 0.25
isolate (source animal id): 214 | 0.5 (≈ 0.955 µM)
isolate (source animal id): 215 | 0.5 (≈ 0.955 µM)
isolate (source animal id): 216 | ≤ 0.25
isolate (source animal id): 217 | ≤ 0.25
isolate (source animal id): 218 | 0.5 (≈ 0.955 µM)
isolate (source animal id): 219 | 0.5 (≈ 0.955 µM)
isolate (source animal id): 220 | ≤ 0.25
